About 3,700 (1.2%) of roughly 300,000 compounds were called active. This list was built around the results that the source calls inconclusive (neither active nor inactive); the mix of calls is not that of the screen. Calls come from the whole dose curve; tested in HEK293 cells. Potencies of inconclusive entries are doubtful fits and often do not repeat.
Assay: qHTS for Inhibitors of binding or entry into cells for Lassa Virus; note: nearly all actives have a fitted effect of over 50% in size
Details: Lassa virus pseudotype entry inhibition, cell reporter; series mostly up to 37.9 µM
Potency is the fitted concentration of half-maximal effect.

Structure (SMILES)	Potency
CCCCCS(=O)(=O)c1oc(-c2cccs2)nc1S(=O)(=O)c1ccc(C)cc1	inactive
CCOc1ccc(Br)cc1S(=O)(=O)Nc1cccc(S(=O)(=O)N(C)C)c1	inconclusive: 31.6 µM [inhibitor, single point]
CCc1ccc(NC(=O)c2sc(-n3nc(C)c(Cc4ccc(OC)cc4)c3C)nc2C)cc1	inactive
COc1cc(C(C(=O)NC2CCCC2)N(C(=O)c2snc(C(N)=O)c2N)C2CCCC2)cc(OC)c1OC (stereo not given)	inactive
CCOC(=O)c1c(C)nc2sc3c(=O)n(-c4ccc(C(C)=O)cc4)cnc3c2c1-c1ccc(Cl)cc1	inconclusive: 8.91 µM [inhibitor, partial curve]
O=C(CSc1nc2ccccc2c(=O)n1Cc1ccco1)c1ccccc1	inconclusive: 11.6 µM [inhibitor, partial curve, poor fit]
CCN1CCCC1CNCc1ccccc1OCc1ccc(F)cc1 (stereo not given)	inactive
COc1ccc(N(C)C(=O)CCn2cnc3onc(-c4ccc(F)cc4)c3c2=O)c(OC)c1	inactive
COc1cccc(NC(=O)CN2C(=O)c3cccnc3Oc3ccc(Cl)cc32)c1	inactive
O=C(NCC1CCN(Cc2cccc(Cl)c2)CC1)Nc1cc(Cl)ccc1Cl	inconclusive: 35.5 µM [inhibitor, single point]
Cc1ccc2nc(N3C(=O)C(O)=C(C(=O)c4ccco4)C3c3cccs3)sc2c1 (stereo not given)	inconclusive: 32.6 µM [inhibitor, single point]
O=C(NCCc1ccccc1)c1cc(S(=O)(=O)N2CCOCC2)ccc1F	inactive
COc1cccc(NC(=S)N(CCCN2CCCC(C)C2)Cc2cccs2)c1 (stereo not given)	inconclusive: 25.1 µM [inhibitor, single point]
COc1ccccc1CNc1ccc(-c2nc(-c3cccnc3)no2)cc1[N+](=O)[O-]	inactive
CC(C)C(=O)Nc1ccc(C(=O)Nc2ccc(Br)cc2F)cc1	inactive
Cc1ccc(C(=O)Nc2ccc(-c3cn4cccnc4n3)cc2)cc1C	inconclusive: 35.5 µM [inhibitor, single point]
COc1ccc(NC(=O)c2ccc(-c3ccccc3)cc2)cc1NS(=O)(=O)c1ccc(F)cc1	inconclusive: 22.4 µM [inhibitor, single point]
CCOC(=O)c1c(NC(=O)Nc2cccc(Cl)c2)sc(C)c1C	inactive
COc1ccc(N(C)C(=O)c2cn(C3CCCCC3)c(=O)c3c2c2ccccc2n3C)cc1	inconclusive: 10 µM [inhibitor, partial curve, poor fit]
O=C(O)CSc1ncn[nH]1	inactive
CCOC(=O)C1=C(C)NC2=C(C(=O)c3ccccc32)C1c1cccc2ccccc12 (stereo not given)	inconclusive: 10 µM [inhibitor, partial curve, poor fit]
COc1ccc(S(=O)(=O)N2CCN(c3ccccc3)CC2)cc1	inconclusive: 11.2 µM [inhibitor, partial curve, poor fit]
COC(=O)c1ccc2c(=O)[nH]c(CN3c4ccccc4CC3C)nc2c1 (stereo not given)	inconclusive: 32.6 µM [inhibitor, single point]
Cc1ccc(NC(=O)NCCc2c(C)nn(C)c2C)cc1Cl	inactive

Structure (SMILES)	Potency
COc1ccc(-c2nc3ccc(N4CCCC4)cc3c(=O)[nH]2)cc1OC	inconclusive: 5.62 µM [inhibitor, full curve, poor fit]
COc1ccc(-c2csc3ncnc(N4CCN(c5ccccc5O)CC4)c23)cc1	inconclusive: 35.5 µM [inhibitor, single point]
Cc1ccccc1-c1nnc(SCc2ccccc2)o1	inactive
CC(NC(=O)c1ccc2c(c1)CCN2S(=O)(=O)c1ccc(Cl)cc1)c1ccccc1 (stereo not given)	inconclusive: 35.5 µM [inhibitor, single point]
Cc1c(C)c2ccc(OCc3ccc(C(=O)O)o3)c(C)c2oc1=O	active: 4.11 µM
CC(=O)Nc1sc(-c2ccc(Cl)cc2)nc1-c1ccccc1	inactive
C/C(=N\Nc1ccc2nncn2n1)c1ccccn1	inconclusive: 2.82 µM [inhibitor, full curve]
COc1ccccc1-c1nnc(SCC(=O)c2ccc(Cl)cc2)n1-c1ccccc1	inconclusive: 8.91 µM [inhibitor, partial curve, poor fit]
COc1ccc(N2CCCn3c2nc2c3c(=O)n(CCc3ccccc3)c(=O)n2C)cc1	inconclusive: 1.26 µM [inhibitor, partial curve, poor fit]
Cn1c(=O)[nH]c(=O)c2c1nc([N+](=O)[O-])n2Cc1ccccc1	inconclusive: 5.62 µM [inhibitor, partial curve, poor fit]
Cc1ccc(OCC(=O)N(C)CC(=O)N(CC(C)C)c2c(N)n(CC(C)C)c(=O)[nH]c2=O)c(C)c1	inconclusive: 0.447 µM [inhibitor, single point]
Cc1ccc(-c2nc3sc(CCNC(=O)c4ccc(Br)o4)c(C)n3n2)cc1	inconclusive: 20 µM [inhibitor, single point]
COc1ccccc1CNC(=O)C(NS(=O)(=O)c1cccs1)C(C)C (stereo not given)	inactive
CCCn1c(/C=N/Nc2nc3ccccc3[nH]2)nc2ccccc21	active: 12.6 µM
N=c1ccn(CC(=O)c2ccc(-c3ccccc3)cc2)cc1	inconclusive: 20 µM [inhibitor, partial curve, poor fit]
CCOc1ccc(C(=O)N2CCC(c3nc4ccccc4o3)CC2)cc1	inactive
O=C(COc1ccc2c(-c3ccccc3)cc(=O)oc2c1)Nc1ccc(CN2CCOCC2)cc1	inconclusive: 3.55 µM [activator, single point]
Cc1cc(N2CCCCC2)nc2ccc(NC(=O)c3cccc(Cl)c3)cc12	inactive
O=C(NCCO)c1cc2c(s1)CCC2	inconclusive: 3.55 µM [activator, single point]
CC(CCc1ccccc1)NC(=O)C1CCCN(C(=O)c2cc3sccc3n2C)C1 (stereo not given)	inconclusive: 9.2 µM [inhibitor, partial curve, poor fit]
Cc1ccc(S(=O)(=O)N2CCC(C(=O)Nc3ccc(N4CCOCC4)cc3)CC2)cc1C	inactive
CCN1CCN(c2cc(C)c3cc(NC(=S)N4CCCCC4)ccc3n2)CC1	inconclusive: 35.5 µM [inhibitor, single point]
CC(C)COC(=O)N(C)c1ccc(C(O)(C(F)(F)F)C(F)(F)F)cc1	active: 3.55 µM
CC(C)CCSc1cc(NCCO)c([N+](=O)[O-])c2nonc12	inactive

A draw from above in order of count of non-hydrogen atoms, falling:
Structure (SMILES)	Potency
COc1ccccc1-c1nnc(SCC(=O)c2ccc(Cl)cc2)n1-c1ccccc1	inconclusive: 8.91 µM [inhibitor, partial curve, poor fit]
CC(C)CCSc1cc(NCCO)c([N+](=O)[O-])c2nonc12	inactive
Cc1ccccc1-c1nnc(SCc2ccccc2)o1	inactive

Next entries:

Structure (SMILES)	Potency
CCOc1ccc(CCNC(=O)C2CC(C)=CCC2C(=O)O)cc1OCC (stereo not given)	inconclusive: 5.62 µM [activator, full curve, poor fit]
CC(C)n1nnc2c(=O)oc3ccccc3c21	inactive
Cc1cccc(C(=O)Nc2nc(C)c(C(=O)Nc3ccc4c(c3)CCC4)s2)c1	inconclusive: 13 µM [inhibitor, partial curve, poor fit]
COc1ccc(-n2c(=O)c3c4c(sc3n(Cc3ccc(F)cc3)c2=O)CCCC4)c(OC)c1	inactive
Cc1onc(-c2ccccc2)c1-c1nnc(COC(=O)c2ccc(O)cc2)o1	inconclusive: 10 µM [inhibitor, partial curve, poor fit]
COc1ccccc1NC(=O)C1=C(C)Nc2ncnn2C1c1ccccc1C(=O)O (stereo not given)	inactive
CCC(=C(c1ccc(OC)cc1)c1ccc(OC)cc1)c1cn(CC(O)CN(CCO)CCO)c2ccccc12 (stereo not given)	inconclusive: 29.1 µM [inhibitor, single point]
CCC(=O)NC1=C(Nc2ccc(N)cc2)C(=O)c2ccccc2C1=O	inactive
CCCCN(CC)CCCNC(=O)CCN1N=C(c2ccc(OC)cc2)CCC1=O	inactive
CCOC(=O)c1c(NC(=O)C(Sc2ccccc2)c2ccccc2)sc(C(=O)N(C)C)c1C (stereo not given)	active: 15.8 µM
NC(=O)c1ccc(NC(=O)COC(=O)CC23CC4CC(CC(Br)(C4)C2)C3)cc1	inconclusive: 1.26 µM [activator, single point]
CC1(C)CC(N2CCN(Cc3ccccc3)CC2)=CC(=[N+]2CCCCC2)C1	inconclusive: 7.94 µM [inhibitor, partial curve, poor fit]
CCc1ccc(NC(=O)C(=S)NC2CCCCC2)cc1	inconclusive: 35.5 µM [inhibitor, single point]
CNC(=S)Nc1ccc(OC)c(OC)c1	inconclusive: 6.31 µM [activator, single point]
Oc1ccc2c(c1)oc1cc(O)ccc12	inconclusive: 0.92 µM [inhibitor, full curve, poor fit]
O=C(N/N=C/c1cccc([N+](=O)[O-])c1O)c1cccs1	inactive
COCCn1c(=NC(=O)C(C)(C)C)sc2cc([N+](=O)[O-])ccc21	inconclusive: 23.1 µM [activator, partial curve, poor fit]
COc1cccc(/C=C2\Oc3ccc(O)cc3C2=O)c1O	inconclusive: 5.01 µM [inhibitor, full curve, poor fit]
Cc1ccc(-c2nnc(N3CCN(C(=O)CSc4ncn[nH]4)CC3)c3ccccc23)cc1	inactive
Cc1cc(CNC(=O)COc2cc(F)ccc2[N+](=O)[O-])c2ccccc2n1	inconclusive: 25.1 µM [inhibitor, single point]
C/C(=N\NC(=O)CNc1ccc(F)cc1)c1cc2ccccc2o1	inconclusive: 10 µM [inhibitor, partial curve, poor fit]
CCN(CC)c1ccc(C2C(C(C)=O)C(=O)CC(C)(O)C2C(C)=O)cc1 (stereo not given)	inconclusive: 1.26 µM [inhibitor, single point]

— PubChem BioAssay AID540256 (National Center for Advancing Translational Sciences (NCATS), 2011)
